Where a name gives a salt, the structure may show the parent alone. Some of the results follow. Hit calls seldom repeat between salt and free forms of one compound.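 Kinases, fused to nanoluciferase, were expressed in K562 cells; luminescence was measured every 4 h from 2 to 18 h as percent of control (DMSO = 100%, positive control = 0%). A time point is decreased if signal falls significantly (2 sigma). Hits were called by the authors by a rule that is not shown; the count of time points alone does not decide it.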
How the values were obtained:
Test in all cases: kinase-Nluc reporter destabilization hit call (1 = scored as downregulated) (binary); higher = compound decreases kinase abundance
Settings in all cases: K562; 2-18 h
BRAF_V600E = test system: BRAF_V600E
BTK = BTK (UniProt Q06187)
CAMK2A = CAMK2A (UniProt Q9UQM7)
CAMK2G = CAMK2G (UniProt Q13555)
CDK10 = CDK10 (UniProt Q15131)
CDK2 = CDK2 (UniProt P24941)
CDK3 = CDK3 (UniProt Q00526)
CDK4 = CDK4 (UniProt P11802)
CDK5 = CDK5 (UniProt Q00535)
CDK6 = CDK6 (UniProt Q00534)

Chains of the proteins cited; added tags and fusions are not shown. Lines headed by an entry give the natural chain unless they say otherwise; changes in a name come on top.
UniProt Q06187: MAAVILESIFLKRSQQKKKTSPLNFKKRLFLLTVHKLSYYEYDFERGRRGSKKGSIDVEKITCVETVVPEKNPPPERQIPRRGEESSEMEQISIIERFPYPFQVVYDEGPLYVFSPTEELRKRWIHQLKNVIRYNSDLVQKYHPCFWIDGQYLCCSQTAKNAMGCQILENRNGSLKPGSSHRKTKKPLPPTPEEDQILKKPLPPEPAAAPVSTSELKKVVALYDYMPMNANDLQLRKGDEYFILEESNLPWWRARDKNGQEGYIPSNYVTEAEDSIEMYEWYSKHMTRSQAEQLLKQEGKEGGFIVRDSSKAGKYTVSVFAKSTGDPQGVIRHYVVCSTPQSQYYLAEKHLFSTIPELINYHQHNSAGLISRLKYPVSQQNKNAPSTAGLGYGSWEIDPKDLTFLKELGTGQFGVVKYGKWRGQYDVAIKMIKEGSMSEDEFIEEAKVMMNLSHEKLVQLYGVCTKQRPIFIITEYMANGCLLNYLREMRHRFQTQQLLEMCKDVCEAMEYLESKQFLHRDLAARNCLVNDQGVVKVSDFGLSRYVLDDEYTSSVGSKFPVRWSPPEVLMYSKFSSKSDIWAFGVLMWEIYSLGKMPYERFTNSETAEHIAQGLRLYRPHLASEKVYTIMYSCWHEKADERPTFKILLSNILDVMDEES
UniProt Q9UQM7, whole entry: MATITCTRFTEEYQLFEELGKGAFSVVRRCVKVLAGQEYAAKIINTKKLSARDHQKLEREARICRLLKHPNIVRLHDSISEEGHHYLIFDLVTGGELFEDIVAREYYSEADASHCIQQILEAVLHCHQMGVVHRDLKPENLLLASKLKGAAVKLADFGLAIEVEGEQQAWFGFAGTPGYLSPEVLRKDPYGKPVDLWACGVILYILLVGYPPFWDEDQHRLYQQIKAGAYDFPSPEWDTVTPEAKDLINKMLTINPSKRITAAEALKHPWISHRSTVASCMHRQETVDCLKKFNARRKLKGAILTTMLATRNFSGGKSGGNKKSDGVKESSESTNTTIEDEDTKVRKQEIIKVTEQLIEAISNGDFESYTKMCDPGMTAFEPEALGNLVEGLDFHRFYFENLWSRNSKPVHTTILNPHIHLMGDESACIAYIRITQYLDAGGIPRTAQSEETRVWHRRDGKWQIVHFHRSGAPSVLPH
UniProt Q13555: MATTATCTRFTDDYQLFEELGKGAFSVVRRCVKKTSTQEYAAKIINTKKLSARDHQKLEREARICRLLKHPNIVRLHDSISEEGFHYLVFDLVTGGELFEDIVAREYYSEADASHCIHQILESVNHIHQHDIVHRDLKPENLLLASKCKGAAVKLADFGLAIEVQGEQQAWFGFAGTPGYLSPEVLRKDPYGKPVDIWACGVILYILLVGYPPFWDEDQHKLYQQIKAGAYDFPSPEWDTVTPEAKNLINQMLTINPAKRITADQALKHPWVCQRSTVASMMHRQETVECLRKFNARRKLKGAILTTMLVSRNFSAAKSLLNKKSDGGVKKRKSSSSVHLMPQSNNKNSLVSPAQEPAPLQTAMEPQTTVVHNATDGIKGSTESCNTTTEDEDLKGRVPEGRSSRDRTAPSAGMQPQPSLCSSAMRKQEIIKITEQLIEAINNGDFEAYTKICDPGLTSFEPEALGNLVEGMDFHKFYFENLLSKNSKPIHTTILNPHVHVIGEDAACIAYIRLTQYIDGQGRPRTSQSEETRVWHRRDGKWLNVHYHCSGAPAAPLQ
UniProt Q15131: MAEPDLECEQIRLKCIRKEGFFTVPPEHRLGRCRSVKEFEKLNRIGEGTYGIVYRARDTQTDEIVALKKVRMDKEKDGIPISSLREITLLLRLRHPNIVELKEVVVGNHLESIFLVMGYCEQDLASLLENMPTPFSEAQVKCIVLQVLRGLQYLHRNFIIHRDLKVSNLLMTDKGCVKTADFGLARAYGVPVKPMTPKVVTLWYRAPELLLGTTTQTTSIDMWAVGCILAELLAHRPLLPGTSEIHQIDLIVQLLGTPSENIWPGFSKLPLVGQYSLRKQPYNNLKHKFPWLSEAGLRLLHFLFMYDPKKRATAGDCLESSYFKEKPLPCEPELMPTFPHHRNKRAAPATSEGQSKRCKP
UniProt Q00526: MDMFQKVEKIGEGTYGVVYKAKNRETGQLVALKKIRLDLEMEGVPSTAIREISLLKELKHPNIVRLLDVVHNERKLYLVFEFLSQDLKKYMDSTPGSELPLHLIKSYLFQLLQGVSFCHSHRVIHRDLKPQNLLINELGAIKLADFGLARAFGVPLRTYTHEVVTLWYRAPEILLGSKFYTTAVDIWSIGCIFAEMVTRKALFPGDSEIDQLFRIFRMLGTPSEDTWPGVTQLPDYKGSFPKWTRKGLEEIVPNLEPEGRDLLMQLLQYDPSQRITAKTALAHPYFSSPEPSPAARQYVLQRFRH
UniProt P11802: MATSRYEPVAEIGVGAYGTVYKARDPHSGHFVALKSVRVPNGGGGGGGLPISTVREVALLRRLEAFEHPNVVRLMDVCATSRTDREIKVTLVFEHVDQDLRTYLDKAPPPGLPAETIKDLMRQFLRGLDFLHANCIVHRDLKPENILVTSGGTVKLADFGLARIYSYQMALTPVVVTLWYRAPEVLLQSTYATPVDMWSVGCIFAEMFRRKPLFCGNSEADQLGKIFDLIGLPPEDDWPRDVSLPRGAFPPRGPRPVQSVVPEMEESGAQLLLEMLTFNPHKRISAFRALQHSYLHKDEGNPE
UniProt Q00535, whole entry, looked up: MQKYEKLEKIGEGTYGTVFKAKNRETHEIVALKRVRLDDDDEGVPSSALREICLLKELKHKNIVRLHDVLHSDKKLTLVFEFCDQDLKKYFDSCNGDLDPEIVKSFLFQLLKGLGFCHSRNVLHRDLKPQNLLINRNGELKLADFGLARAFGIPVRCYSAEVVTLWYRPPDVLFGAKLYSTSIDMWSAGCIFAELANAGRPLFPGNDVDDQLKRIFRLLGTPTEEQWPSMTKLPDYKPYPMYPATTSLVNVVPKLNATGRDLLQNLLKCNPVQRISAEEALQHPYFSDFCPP
UniProt Q00534, whole entry: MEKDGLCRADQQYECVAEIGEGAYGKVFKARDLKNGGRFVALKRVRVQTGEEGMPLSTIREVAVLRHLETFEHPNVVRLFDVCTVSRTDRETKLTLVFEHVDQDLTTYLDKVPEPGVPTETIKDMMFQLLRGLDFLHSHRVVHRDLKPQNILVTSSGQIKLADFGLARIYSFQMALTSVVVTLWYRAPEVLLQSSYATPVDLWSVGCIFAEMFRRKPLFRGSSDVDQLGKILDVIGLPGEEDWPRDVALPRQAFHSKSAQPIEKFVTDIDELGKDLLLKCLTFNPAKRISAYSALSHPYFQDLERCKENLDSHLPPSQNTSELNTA

Measured: kinase-Nluc reporter destabilization hit call

Cc1cc(Nc2cc(N3CCN(C)CC3)nc(Nc3ccc([N+](=O)[O-])cc3)n2)n[nH]1 (2.5 µM)
inactive: BRAF_V600E 0 | BTK 0 | CAMK2A 0 | CAMK2G 0 | CDK10 = 0 | CDK2 = 0 | CDK3 = 0 | CDK4 = 0 | CDK5 = 0 | CDK6 = 0

Cc1cccc(/C=N/Nc2cc(N3CCOCC3)n3nc(-c4ccncc4)cc3n2)c1 (10 µM)
inactive: BRAF_V600E 0 | BTK 0 | CAMK2A 0 | CAMK2G 0 | CDK10 = 0 | CDK2 = 0 | CDK3 = 0 | CDK4 = 0 | CDK5 = 0 | CDK6 = 0

CN1CCN(c2ccc(Nc3ncc4cc(C#N)c(=O)n(C5CCCC5)c4n3)cc2)CC1 (10 µM)
inactive: BRAF_V600E 0 | BTK 0 | CAMK2A 0 | CAMK2G 0 | CDK10 = 0 | CDK2 = 0 | CDK3 = 0 | CDK4 = 0 | CDK5 = 0 | CDK6 = 0

Nc1[nH]nc2nc(-c3ccc(NS(=O)(=O)c4cc(Cl)ccc4Cl)cc3)cnc12 (10 µM)
inactive: BRAF_V600E 0 | BTK 0 | CAMK2A 0 | CAMK2G 0 | CDK10 = 0 | CDK2 = 0 | CDK3 = 0 | CDK4 = 0 | CDK5 = 0 | CDK6 = 0

C=CC(=O)N1CCC[C@@H](n2nc(-c3ccc(Oc4ccccc4)cc3)c3c(N)n[nH]c(=O)c32)C1 [BTK inhibitor 17] (10 µM)
inactive: BRAF_V600E 0 | BTK 0 | CAMK2A 0 | CAMK2G 0 | CDK10 = 0 | CDK2 = 0 | CDK3 = 0 | CDK4 = 0 | CDK5 = 0 | CDK6 = 0

COc1cc(N2CCC(N3CCN(C)CC3)CC2)ccc1Nc1ncc(Cl)c(-c2c[nH]c3ccccc23)n1 (2.5 µM)
inactive: BRAF_V600E 0 | BTK 0 | CAMK2A 0 | CAMK2G 0 | CDK10 = 0 | CDK2 = 0 | CDK3 = 0 | CDK4 = 0 | CDK5 = 0 | CDK6 = 0

O=c1cc(N2CCOCC2)oc2c(-c3ccc4c(c3)OCCO4)csc12 (2.5 µM)
inactive: BRAF_V600E 0 | BTK 0 | CAMK2A 0 | CAMK2G 0 | CDK10 = 0 | CDK2 = 0 | CDK3 = 0 | CDK4 = 0 | CDK5 = 0 | CDK6 = 0

Retrieved by structure from above (2):
C=CC(=O)N1CCC[C@@H](n2nc(-c3ccc(Oc4ccccc4)cc3)c3c(N)n[nH]c(=O)c32)C1 [BTK inhibitor 17] (10 µM)
inactive: BRAF_V600E 0 | BTK 0 | CAMK2A 0 | CAMK2G 0 | CDK10 = 0 | CDK2 = 0 | CDK3 = 0 | CDK4 = 0 | CDK5 = 0 | CDK6 = 0

CN1CCN(c2ccc(Nc3ncc4cc(C#N)c(=O)n(C5CCCC5)c4n3)cc2)CC1 (10 µM)
inactive: BRAF_V600E 0 | BTK 0 | CAMK2A 0 | CAMK2G 0 | CDK10 = 0 | CDK2 = 0 | CDK3 = 0 | CDK4 = 0 | CDK5 = 0 | CDK6 = 0

Next part:

COC(=O)/C=C/c1ccccc1 [Methyl cinnamate] (10 µM)
inactive: BRAF_V600E 0 | BTK 0 | CAMK2A 0 | CAMK2G 0 | CDK10 = 0 | CDK2 = 0 | CDK3 = 0 | CDK4 = 0 | CDK5 = 0 | CDK6 = 0

CCCCCC(=O)N[C@@H](Cc1ccc(O)cc1)C(=O)OC (10 µM)
inactive: BRAF_V600E 0 | BTK 0 | CAMK2A 0 | CAMK2G 0 | CDK10 = 0 | CDK2 = 0 | CDK3 = 0 | CDK4 = 0 | CDK5 = 0 | CDK6 = 0

CCN(CC)CCCC(C)Nc1nc(C)cc(Nc2ccc3nc(C)cc(N)c3c2)n1 (stereo not given) (10 µM)
inactive: BRAF_V600E 0 | BTK 0 | CAMK2A 0 | CAMK2G 0 | CDK10 = 0 | CDK2 = 0 | CDK3 = 0 | CDK4 = 0 | CDK5 = 0 | CDK6 = 0

CC(C)=CCC/C(C)=C/CC/C(C)=C/C=C/C(C)=C/C(=O)O [Peretinoin] (10 µM)
inactive: BRAF_V600E 0 | BTK 0 | CAMK2A 0 | CAMK2G 0 | CDK10 = 0 | CDK2 = 0 | CDK3 = 0 | CDK4 = 0 | CDK5 = 0 | CDK6 = 0

O=C(O)[C@H]1O[C@@H](Oc2cc3oc(-c4ccc(O)cc4)cc(=O)c3c(O)c2O)[C@H](O)[C@@H](O)[C@@H]1O [Scutellarin] (10 µM)
inactive: BRAF_V600E 0 | BTK 0 | CAMK2A 0 | CAMK2G 0 | CDK10 = 0 | CDK2 = 0 | CDK3 = 0 | CDK4 = 0 | CDK5 = 0 | CDK6 = 0

COc1cc2cc(Oc3ccc4ccc(=O)oc4c3)c(=O)oc2cc1O [Daphnoretin] (10 µM)
inactive: BRAF_V600E 0 | BTK 0 | CAMK2A 0 | CAMK2G 0 | CDK10 = 0 | CDK2 = 0 | CDK3 = 0 | CDK4 = 0 | CDK5 = 0 | CDK6 = 0

CC(C)n1ncnc1-c1cn2c(n1)-c1ccc(O[C@@H](C)C(N)=O)cc1OCC2 (10 µM)
inactive: BRAF_V600E 0 | BTK 0 | CAMK2A 0 | CAMK2G 0 | CDK10 = 0 | CDK2 = 0 | CDK3 = 0 | CDK4 = 0 | CDK5 = 0 | CDK6 = 0

COc1ccc2c3n(c(=NC(=O)c4cccnc4)nc2c1OC)CCN3 (2 µM)
inactive: BRAF_V600E 0 | BTK 0 | CAMK2A 0 | CAMK2G 0 | CDK10 = 0 | CDK2 = 0 | CDK3 = 0 | CDK4 = 0 | CDK5 = 0 | CDK6 = 0

Cc1ccc(NC(=O)Nc2cc(C(F)(F)F)ccc2F)cc1Nc1ccc2c(c1)NC(=O)/C2=C\c1ccc[nH]1 (2.5 µM)
inactive: BRAF_V600E 0 | BTK 0 | CAMK2A 0 | CAMK2G 0 | CDK10 = 0 | CDK2 = 0 | CDK3 = 0 | CDK4 = 0 | CDK5 = 0 | CDK6 = 0

COc1cc2c(cc1Nc1ncc(C(N)=O)c(Nc3c(F)cccc3C(F)(F)F)n1)CN(C)CC2 (2.5 µM)
inactive: BRAF_V600E 0 | BTK 0 | CAMK2A 0 | CAMK2G 0 | CDK10 = 0 | CDK2 = 0 | CDK3 = 0 | CDK4 = 0 | CDK5 = 0 | CDK6 = 0

COc1ccc(-c2cc(=O)c3c(OC)cc(OC)c(OC)c3o2)cc1 [6-Demethoxytangeretin] (10 µM)
inactive: BRAF_V600E 0 | BTK 0 | CAMK2A 0 | CAMK2G 0 | CDK10 = 0 | CDK2 = 0 | CDK3 = 0 | CDK4 = 0 | CDK5 = 0 | CDK6 = 0

Cc1cc(-n2c(=O)ccc3c[nH]c4nccc-4c32)ccc1F (10 µM)
inactive: BRAF_V600E 0 | BTK 0 | CAMK2A 0 | CAMK2G 0 | CDK10 = 0 | CDK2 = 0 | CDK3 = 0 | CDK4 = 0 | CDK5 = 0 | CDK6 = 0

CO[C@H]1C[C@@H]2CC[C@@H](C)[C@@](O)(O2)C(=O)C(=O)N2CCCC[C@H]2C(=O)O[C@H]([C@H](C)C[C@@H]2CC[C@@H](OCCO)[C@H](OC)C2)CC(=O)[C@H](C)/C=C(\C)[C@@H](O)[C@@H](OC)C(=O)[C@H](C)C[C@H](C)/C=C/C=C/C=C/1C [Everolimus] (10 µM)
inactive: BRAF_V600E 0 | BTK 0 | CAMK2A 0 | CAMK2G 0 | CDK10 = 0 | CDK2 = 0 | CDK3 = 0 | CDK4 = 0 | CDK5 = 0 | CDK6 = 0

c1nn(C2CCOCC2)cc1Nc1ncc2nnn(-c3ccc4cn[nH]c4c3)c2n1 (10 µM)
inactive: BRAF_V600E 0 | BTK 0 | CAMK2A 0 | CAMK2G 0 | CDK10 = 0 | CDK2 = 0 | CDK3 = 0 | CDK4 = 0 | CDK5 = 0 | CDK6 = 0

Oc1c(F)cc(-c2cnccc2-c2ccc(N3CCOCC3)cc2)cc1F (10 µM)
inactive: BRAF_V600E 0 | BTK 0 | CAMK2A 0 | CAMK2G 0 | CDK10 = 0 | CDK2 = 0 | CDK3 = 0 | CDK4 = 0 | CDK5 = 0 | CDK6 = 0

Cc1cc(C(=O)NC(C)(C)C)cc(C#Cc2ccc3c4c(oc3c2)C(C)(C)c2cc(NS(C)(=O)=O)ccc2C4=O)n1 (10 µM)
inactive: BRAF_V600E 0 | BTK 0 | CAMK2A 0 | CAMK2G 0 | CDK10 = 0 | CDK2 = 0 | CDK3 = 0 | CDK4 = 0 | CDK5 = 0 | CDK6 = 0

O=Nc1c(-c2c(O)[nH]c3cc(Br)ccc23)[nH]c2ccccc12 [GSK 3 Inhibitor IX] (2.5 µM)
inactive: BRAF_V600E 0 | BTK 0 | CAMK2A 0 | CAMK2G 0 | CDK10 = 0 | CDK2 = 0 | CDK3 = 0 | CDK4 = 0 | CDK5 = 0 | CDK6 = 0

O=C1NC(=O)/C(=C\c2c[nH]c(=O)c(-c3ccc(N4CCNCC4)nc3)c2)S1 [Protein kinase inhibitors 1 hydrochloride] (10 µM)
inactive: BRAF_V600E 0 | BTK 0 | CAMK2A 0 | CAMK2G 0 | CDK10 = 0 | CDK2 = 0 | CDK3 = 0 | CDK4 = 0 | CDK5 = 0 | CDK6 = 0

O=c1[nH]ccc2nc(-c3ccc(CN4CCC(c5nc(-c6ccccn6)n[nH]5)CC4)cc3)c(-c3ccccc3)cc12 (10 µM)
inactive: BRAF_V600E 0 | BTK 0 | CAMK2A 0 | CAMK2G 0 | CDK10 = 0 | CDK2 = 0 | CDK3 = 0 | CDK4 = 0 | CDK5 = 0 | CDK6 = 0

COc1cc2ncnc(Nc3cccc(I)c3)c2cc1OC (2.5 µM)
inactive: BRAF_V600E 0 | BTK 0 | CAMK2A 0 | CAMK2G 0 | CDK10 = 0 | CDK2 = 0 | CDK3 = 0 | CDK4 = 0 | CDK5 = 0 | CDK6 = 0

COc1cc(-c2cc(OP(=O)(O)O)cc(-c3cc(OC)c(OC)c(OC)c3)c2)cc(OC)c1OC [Stafia-1] (10 µM)
inactive: BRAF_V600E 0 | BTK 0 | CAMK2A 0 | CAMK2G 0 | CDK10 = 0 | CDK2 = 0 | CDK3 = 0 | CDK4 = 0 | CDK5 = 0 | CDK6 = 0

Cc1cc(Nc2cc(N)ncn2)c(=O)n2c1C(=O)NC21CCCCC1 [Tomivosertib] (10 µM)
inactive: BRAF_V600E 0 | BTK 0 | CAMK2A 0 | CAMK2G 0 | CDK10 = 0 | CDK2 = 0 | CDK3 = 0 | CDK4 = 0 | CDK5 = 0 | CDK6 = 0

Clc1ccc(C(c2ccc(Cl)cc2)[n+]2ccn(CC(OCc3ccc(Cl)cc3Cl)c3ccc(Cl)cc3Cl)c2)cc1 (stereo not given) [Calmidazolium chloride] (2.5 µM)
inactive: BRAF_V600E 0 | BTK 0 | CAMK2A 0 | CAMK2G 0 | CDK10 = 0 | CDK2 = 0 | CDK3 = 0 | CDK4 = 0 | CDK5 = 0 | CDK6 = 0

CC(O)(C#Cc1ccc2c(c1)N(c1nc(N)ncc1Cl)CC2)c1nccs1 (stereo not given) (2.5 µM)
inactive: BRAF_V600E 0 | BTK 0 | CAMK2A 0 | CAMK2G 0 | CDK10 = 0 | CDK2 = 0 | CDK3 = 0 | CDK4 = 0 | CDK5 = 0 | CDK6 = 0

N#Cc1ccc(-c2cnc3[nH]cc(NC(=O)c4cccnc4)c3c2)cc1 (10 µM)
inactive: BRAF_V600E 0 | BTK 0 | CAMK2A 0 | CAMK2G 0 | CDK10 = 0 | CDK2 = 0 | CDK3 = 0 | CDK4 = 0 | CDK5 = 0 | CDK6 = 0

CC(Sc1nc2c(cnn2-c2cccc(Cl)c2)c(=O)[nH]1)C(N)=O (stereo not given) (10 µM)
inactive: BRAF_V600E 0 | BTK 0 | CAMK2A 0 | CAMK2G 0 | CDK10 = 0 | CDK2 = 0 | CDK3 = 0 | CDK4 = 0 | CDK5 = 0 | CDK6 = 0

— the supplement of paper PMC12823440, “Inhibitors supercharge kinase turnover through native proteolytic circuits” (Nature, 2025)
